# Experimental data taken from publication PMC4139307, “Transforming Growth Factor-β1 Signaling Represses Testicular Steroidogenesis through Cross-Talk with Orphan Nuclear Receptor Nur77”.
# Protein sequences, listed by entry. Tags and fused reporters are not part of them.
# UniProt P12813, whole entry: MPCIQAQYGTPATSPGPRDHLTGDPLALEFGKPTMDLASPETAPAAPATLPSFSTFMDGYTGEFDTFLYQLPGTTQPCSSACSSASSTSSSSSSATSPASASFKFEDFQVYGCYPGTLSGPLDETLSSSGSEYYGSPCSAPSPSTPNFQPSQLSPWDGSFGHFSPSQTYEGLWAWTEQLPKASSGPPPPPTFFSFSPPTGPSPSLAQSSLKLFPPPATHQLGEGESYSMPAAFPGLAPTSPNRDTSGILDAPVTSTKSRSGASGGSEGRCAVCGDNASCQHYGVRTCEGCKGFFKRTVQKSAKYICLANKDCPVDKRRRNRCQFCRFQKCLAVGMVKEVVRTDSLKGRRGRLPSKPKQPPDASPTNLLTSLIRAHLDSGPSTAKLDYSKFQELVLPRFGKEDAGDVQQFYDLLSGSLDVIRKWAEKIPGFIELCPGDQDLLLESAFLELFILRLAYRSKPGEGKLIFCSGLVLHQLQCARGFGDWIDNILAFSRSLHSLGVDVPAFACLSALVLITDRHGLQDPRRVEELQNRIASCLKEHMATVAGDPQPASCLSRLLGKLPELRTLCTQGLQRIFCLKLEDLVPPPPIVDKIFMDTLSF
# Target: GST-Nur77 (UniProt P12813)
# Assay: EMSA
# Conditions: increasing GST-Smad3, complex eliminated dose-dependently; recombinant protein; protein details: GST; label: 32P (alpha-32P dCTP labeling)
sequence,measurement,value
GGGGCTCGTGCGAAAAGGTCAAGCGCTA (double strand) [NBRE oligonucleotide],binding result,binds more weakly

# Construct, isoform or probe ends are uncertain for at least one entry. Weaker means in comparison with the reference protein, sequence or condition of that experiment.
